# Measurements from PubChem BioAssay AID720504 (National Center for Advancing Translational Sciences (NCATS), 2013).
# The chains behind the UniProt entries cited, without tags or fusion partners.
# UniProt P53350, whole entry, looked up: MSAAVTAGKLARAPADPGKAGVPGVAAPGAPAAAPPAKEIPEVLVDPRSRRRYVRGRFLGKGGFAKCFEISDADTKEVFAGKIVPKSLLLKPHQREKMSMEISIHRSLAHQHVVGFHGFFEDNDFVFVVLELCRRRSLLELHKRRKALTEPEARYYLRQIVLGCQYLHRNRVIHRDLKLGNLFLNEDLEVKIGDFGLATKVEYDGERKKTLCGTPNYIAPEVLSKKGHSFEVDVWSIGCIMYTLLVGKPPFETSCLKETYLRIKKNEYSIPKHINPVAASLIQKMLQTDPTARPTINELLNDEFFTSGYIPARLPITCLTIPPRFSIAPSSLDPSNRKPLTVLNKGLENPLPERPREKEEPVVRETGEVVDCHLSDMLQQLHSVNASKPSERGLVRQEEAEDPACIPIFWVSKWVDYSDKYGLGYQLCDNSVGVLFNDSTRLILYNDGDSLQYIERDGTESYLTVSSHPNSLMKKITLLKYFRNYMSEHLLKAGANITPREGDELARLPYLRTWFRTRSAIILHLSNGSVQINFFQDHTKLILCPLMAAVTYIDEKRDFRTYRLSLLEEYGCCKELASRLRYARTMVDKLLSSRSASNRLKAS
# Out of some 360,000 compounds screened, about 10,000 (2.8%) were called active. The inconclusive results got no clear call from the source; some entries with a clear call stand among them for comparison. Calls follow the shape of the dose curve; as a rule, active = well fitted inhibition curve with a large enough effect; inconclusive = small, poorly fitted or top-dose-only effect; inactive = flat fitted curve, though single readings scatter. A potency beside an inconclusive call is a rough fit, not a confirmed value.
# Target: Serine/threonine-protein kinase PLK1 (Homo sapiens) (UniProt P53350)
# Assay: qHTS for Inhibitors of PLK1-PDB (polo-like kinase 1 - polo-box domain): Primary Screen; also: nearly all actives have a fitted effect of over 65% in size; as to max response, negative = inhibition: series mostly up to about 57 µM
# Conditions: Plk1 PBD binding of FITC phosphopeptide, fluorescence polarization
# % is scaled to controls: 0 for no effect and ±100 for the full control effect; potency is read from the fitted curve at half-maximal effect.
SMILES,Potency,"max response, negative = inhibition"
O=S(=O)(NCCc1csc(-c2ccccc2)n1)c1cccnc1,"inconclusive: 23.8 µM [inhibitor, single point]",–
COc1ccc(C(C)=O)cc1COC(=O)c1cccnc1SC,"inconclusive: 18.9 µM [inhibitor, partial curve]",–
Cc1cccc(NC(=S)Nn2cnnc2)c1C,"inconclusive: 26.7 µM [inhibitor, single point]",–
CCOC(=O)C1=C(COC(=O)Cc2c(F)cccc2Cl)NC(=O)NC1C (stereo not given),–,inactive: -13.6%
CN(C)C(=O)c1ccc(NC(=O)c2cc(-c3ccco3)nc3ccccc23)cc1,"inconclusive: 18.9 µM [inhibitor, partial curve]",–
COC(=O)COc1c(Cl)cc(C(c2c(C)[nH][nH]c2=O)c2c(C)[nH][nH]c2=O)cc1OC,"inconclusive: 29.9 µM [inhibitor, partial curve]",–
Cc1noc(NS(=O)(=O)c2ccc(NC(=O)/C=C/c3ccc(C(C)C)cc3)cc2)c1C,"inconclusive: 23.8 µM [inhibitor, single point]",–
O=C(Nc1ccc2cn[nH]c2c1)c1c(Cl)cccc1Cl,"inconclusive: 26.7 µM [inhibitor, partial curve]",–
O=C(CNC(=O)c1ccc(N2C(=O)c3ccccc3C2=O)cc1)OCC(=O)c1ccccc1,active: 23.8 µM,–
COc1ccccc1/C=C/C=N/n1c(C2CCCCC2)n[nH]c1=S,"inconclusive: 23.8 µM [inhibitor, single point]",–
CCCCCCCCSc1nnc2[nH]c(=O)cc(N)n12,active: 3.36 µM,–
O=C1CCCCC1Sc1ccc(Cl)cc1[N+](=O)[O-] (stereo not given),active: 4.74 µM,–
CCCCC(=O)Nc1ccc2c(c1)nc1n2CCOC1,"inconclusive: 26.7 µM [inhibitor, partial curve]",–
O=C(O)c1ccccc1NS(=O)(=O)c1ccc(NN=Cc2cccc(Cl)c2)c([N+](=O)[O-])c1,"inconclusive: 26.7 µM [inhibitor, single point]",–
COC(=O)c1cc2n(n1)CCN(Cc1ccc(C)cc1)C2=O,"inconclusive: 21.2 µM [inhibitor, single point]",–
Cc1ccc(/C=c2\s/c(=C(/C#N)C(=O)N3CCCC3)n(Cc3ccco3)c2=O)s1,–,inactive: -23.8%
CCC(=O)N(C1=C(NC(C)C)C(=O)c2ccccc2C1=O)C(C)C,–,inactive: -1.41%
S=C(Nc1ccccc1Cl)Nc1ccc(Cl)cc1Cl,"inconclusive: 26.7 µM [inhibitor, partial curve]",–
O=C(COc1cccc2ccccc12)N/N=C/c1ccccc1OCc1ccc(C(=O)O)cc1,active: 26.7 µM,–
COc1cc(/C=C(\C#N)C(=O)NCC2CCCO2)c([N+](=O)[O-])cc1OC (stereo not given),"inconclusive: 21.2 µM [inhibitor, partial curve]",–
O=C(Cc1ccccc1)NCc1n[nH]c(=S)n1-c1ccccc1,active: 26.7 µM,–
COCCOc1cc(NC(=O)c2sccc2Oc2ccc([N+](=O)[O-])cc2F)c(Cl)cc1Cl,–,inactive: -3.74%
O=C(COC(=O)c1cc(S(=O)(=O)N2CCOCC2)c(Cl)cc1Cl)NC1CC1,–,inactive: -3.37%
C=CCc1ccc(OCCCCN2CC(C)OC(C)C2)c(OC)c1 (stereo not given),–,inactive: -5.66%

SMILES,Potency,"max response, negative = inhibition"
COc1ccc(/C=N/NC(=O)CN2CCCC2)cc1,–,inactive: -1.94%
CCCN1CCC(=O)N([C@H](CSc2ccc(OC)cc2)Cc2ccccc2)CC1,"inconclusive: 33.6 µM [inhibitor, single point]",–
O=C(/C=C/c1ccc(O)c([N+](=O)[O-])c1)c1ccc2ccccc2c1,"inconclusive: 21.2 µM [inhibitor, single point]",–
COc1cc(/C=N/Nc2ccccc2C(F)(F)F)ccc1O,"inconclusive: 26.7 µM [inhibitor, partial curve]",–
Cc1[nH][nH]c(=O)c1C(c1ccc2c(c1)OCO2)c1c(C)[nH][nH]c1=O,"inconclusive: 42.3 µM [inhibitor, partial curve]",–
CCOC(=O)C1=C(O)/C(=C\c2ccc(CNS(=O)(=O)c3ccc(Br)cc3)o2)N=C1C,"inconclusive: 23.8 µM [inhibitor, single point]",–
COc1nc(N2CCCC2)nc(-n2nnc(C(C)=O)c2C)n1,"inconclusive: 29.9 µM [inhibitor, single point]",–
COc1ccc(C(=O)c2no[n+]([O-])c2C(=O)c2ccc(OC)cc2)cc1,"inconclusive: 1.89 µM [inhibitor, full curve]",–
COc1cccc(Nc2nc(C(N)C3CCCCC3)cs2)n1 (stereo not given),–,inactive: -5.3%
Cc1ccc2c(c1)CCCN2S(=O)(=O)c1cccc(C(=O)Nc2ccccc2C(=O)O)c1,active: 18.9 µM,–
Cc1cc2c(=O)oc(-c3ccccc3Br)nc2s1,"inconclusive: 26.7 µM [inhibitor, partial curve]",–
O=C(O)CN1C(=O)/C(=C\c2cccc(OCc3ccc(Cl)cc3Cl)c2)SC1=S,active: 21.2 µM,–
CCn1c(SCC(=O)c2cc(OC)ccc2OC)nnc1C1CC1,"inconclusive: 21.2 µM [inhibitor, partial curve]",–
FC(F)(F)c1cnc(NNC(=S)Nc2cccnc2)c(Cl)c1,"inconclusive: 29.9 µM [inhibitor, partial curve]",–
O=C(O)/C=C/c1coc2ccccc2c1=O,–,inactive: -15.3%
COc1ccccc1N1CCN(C(=O)c2ccco2)CC1,–,inactive: -3.96%
O=C(CC1C(=O)N(Cc2ccccc2)C(=S)N1CCN1CCOCC1)Nc1ccc(F)cc1 (stereo not given),"inconclusive: 18.9 µM [inhibitor, single point]",–
C=C/C(C)=C/CC1C(=C)CCC2C(C)(C(=O)O)CCCC12C (stereo not given),active: 18.9 µM,–
CCN1C(=O)/C(=C\c2cccn2-c2ccc([N+](=O)[O-])cc2)N(CC)C1=S,–,inactive: -18.8%
CC1=NN(c2ccc(S(=O)(=O)O)cc2Cl)C(=O)C1,"inconclusive: 23.8 µM [inhibitor, single point]",–
O=C(O)c1c2c(nc3ccc(S(=O)(=O)N4CCC(C(=O)NC5CCCCCC5)CC4)cc13)CCCC2,"inconclusive: 18.9 µM [inhibitor, partial curve]",–
Cc1c(N=Cc2cc3c(cc2[N+](=O)[O-])OCO3)cccc1[N+](=O)[O-],"inconclusive: 26.7 µM [inhibitor, partial curve]",–
O=C(COc1cccc2ccccc12)NNC(=O)[C@@H]1CCCC[C@@H]1C(=O)O,"inconclusive: 23.8 µM [inhibitor, single point]",–
Cc1c(Cc2ccc3c(c2)OCO3)sc(NC(=O)c2cccc3ccccc23)c1C(N)=O,active: 5.97 µM,–

SMILES,Potency,"max response, negative = inhibition"
COc1ccc(Nc2cc(Nc3ccccc3)ncn2)cc1,–,inactive: 5.73%
O=C(NC(=S)N1CCCCC1CO)C12CC3CC(CC(C3)C1)C2 (stereo not given),"inconclusive: 29.9 µM [inhibitor, single point]",–
S=C(Nc1ccccc1)N1CCN(C(=S)c2ccccc2)CC1,"inconclusive: 29.9 µM [inhibitor, partial curve]",–
O=C1C=CC(=O)C(C2=C3C(=O)N(CCc4ccccc4)CC(=O)N3CCC2)=C1,"inconclusive: 7.52 µM [inhibitor, full curve, poor fit]",–
CCn1c(SCC(=O)c2c[nH]c3ccccc23)nnc1-c1cccs1,–,inactive: 11.5%
O=C(NC1CCCCC1)c1ccc(-n2cnnn2)cc1,"inconclusive: 23.8 µM [inhibitor, single point]",–
COc1ccccc1NC(=O)c1ccc(N2CC3CC(C2)c2cccc(=O)n2C3)c(NC(=O)c2cccnc2)c1 (stereo not given),–,inconclusive: -36.1% [inhibitor]
Cc1cc(C)n2nc(C(=O)OCC(=O)NCc3ccc(F)cc3)nc2n1,–,inactive: 3.46%
O=C(NC1CCC(O)CC1)c1cc(-c2ccco2)nc2ccccc12 (stereo not given),"inconclusive: 26.7 µM [inhibitor, single point]",–
Cc1c(C(O)CN2CCC(C(N)=O)CC2)c2ccccc2n1C (stereo not given),–,inactive: -4.76%
COc1ccc(C(=O)CSc2nnc(-c3ccco3)c(-c3ccco3)n2)cc1,active: 26.7 µM,–
CCN(CC)C(=O)COC(=O)c1cc(-c2ccc(OC)cc2)nc2ccccc12,–,inactive: -0.165%
CCOc1ccc(CNS(=O)(=O)c2c(C(=O)N3CCCC3)c(C)n(C)c2C)cc1OC,"inconclusive: 29.9 µM [inhibitor, partial curve]",–
CCCC(=O)Nc1ccc(NC(=S)NC(=O)c2cccs2)cc1,"inconclusive: 15 µM [inhibitor, partial curve]",–
Cc1cccc2cc(/C=N/Nc3ccc(C(=O)O)cc3)c(Cl)nc12,"inconclusive: 29.9 µM [inhibitor, single point]",–
CC(C)CCn1c(=O)c2ccccc2n2c(CCC(=O)NCC3CCCO3)nnc12 (stereo not given),"inconclusive: 26.7 µM [inhibitor, partial curve]",–
Cc1ccc2nc(-c3ccco3)c(Nc3ccccc3)n2c1,–,inconclusive: -31.5% [inhibitor]
O=CNc1cc(-c2ccoc2)cn2c(-c3ccc(F)cc3)cnc12,"inconclusive: 21.2 µM [inhibitor, partial curve]",–
CCOc1cc(CNCCCN2CCOCC2)ccc1OCC(=O)Nc1cccc2ccccc12,–,inactive: -7.75%
CCCCCCn1c(=O)[nH]c2nc3cc(N)c(C)cc3nc2c1=O,active: 2.99 µM,–
NNC(=O)CN1CCCc2ccccc21,–,inconclusive: -31.6% [inhibitor]
O=C(CN1CCOCC1)OCCCC1CCCCC1,"inconclusive: 15 µM [inhibitor, partial curve]",–

# At a glance, some entries already given:
SMILES,Potency,"max response, negative = inhibition"
S=C(Nc1ccccc1Cl)Nc1ccc(Cl)cc1Cl,"inconclusive: 26.7 µM [inhibitor, partial curve]",–
O=C(COc1cccc2ccccc12)N/N=C/c1ccccc1OCc1ccc(C(=O)O)cc1,active: 26.7 µM,–
COc1cc(/C=C(\C#N)C(=O)NCC2CCCO2)c([N+](=O)[O-])cc1OC (stereo not given),"inconclusive: 21.2 µM [inhibitor, partial curve]",–
